Assay results: paper PMC5640428
No constants are given. Whether binding was seen depends on the method and setting. In cells and extracts the contact can be indirect. These calls come from enrichment with a bait or labelling near it, and not all partners need be listed.

T1: native KCC2 (K+-Cl- cotransporter KCC2) (mouse (endogenous in brain)) (UniProt Q91V14)
T1 sequence: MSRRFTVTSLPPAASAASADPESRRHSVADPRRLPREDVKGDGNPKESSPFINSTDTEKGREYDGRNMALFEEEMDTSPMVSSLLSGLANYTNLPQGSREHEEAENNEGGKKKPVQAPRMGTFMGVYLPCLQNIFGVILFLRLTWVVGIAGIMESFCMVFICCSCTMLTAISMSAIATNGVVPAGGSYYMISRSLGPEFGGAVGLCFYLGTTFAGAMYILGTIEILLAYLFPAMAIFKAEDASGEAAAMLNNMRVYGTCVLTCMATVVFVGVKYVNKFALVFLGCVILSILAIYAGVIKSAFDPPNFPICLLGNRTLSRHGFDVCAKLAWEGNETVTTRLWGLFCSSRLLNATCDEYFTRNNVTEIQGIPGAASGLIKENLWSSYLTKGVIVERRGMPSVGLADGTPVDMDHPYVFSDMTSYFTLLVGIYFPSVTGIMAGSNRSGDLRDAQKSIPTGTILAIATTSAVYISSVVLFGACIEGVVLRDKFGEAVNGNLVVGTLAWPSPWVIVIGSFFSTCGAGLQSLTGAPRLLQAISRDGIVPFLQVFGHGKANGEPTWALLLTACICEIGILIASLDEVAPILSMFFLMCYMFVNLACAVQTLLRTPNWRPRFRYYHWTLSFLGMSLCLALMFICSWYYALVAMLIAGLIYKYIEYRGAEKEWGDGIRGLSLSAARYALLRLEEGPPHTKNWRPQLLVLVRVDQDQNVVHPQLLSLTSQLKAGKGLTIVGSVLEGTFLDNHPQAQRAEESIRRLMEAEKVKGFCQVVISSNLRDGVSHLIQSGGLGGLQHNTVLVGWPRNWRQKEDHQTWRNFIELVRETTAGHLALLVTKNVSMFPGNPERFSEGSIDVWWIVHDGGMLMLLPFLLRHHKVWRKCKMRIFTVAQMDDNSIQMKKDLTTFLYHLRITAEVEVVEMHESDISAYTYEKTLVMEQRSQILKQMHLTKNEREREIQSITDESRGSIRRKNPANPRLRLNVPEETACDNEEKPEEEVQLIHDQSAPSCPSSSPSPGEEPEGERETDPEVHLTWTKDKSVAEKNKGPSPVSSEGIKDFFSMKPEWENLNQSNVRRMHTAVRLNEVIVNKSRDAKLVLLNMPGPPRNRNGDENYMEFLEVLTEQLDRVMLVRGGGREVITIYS


Molecular target: T1, native KCC2 (K+-Cl- cotransporter KCC2) (mouse (endogenous in brain))
Experiment: affinity purification with mass spectrometry; anti-KCC2 antibodies (C-terminal, N-terminal KCC2b, pS940) cross-linked with DMP to GammaBind IgG beads; C12E9-solubilised whole-brain membrane fractions of P5 and P50 mice; 4 hr, 4°C; parallel IgG/IgY controls

binding | Binder
binds | C1QA (protein, UniProt P98086 23-245) EDVCRAPNGKDGAPGNPGRPGRPGLKGERGEPGAAGIRTGIRGFKGDPGESGPPGKPGNVGLPGPSGPLGDSGPQGLKGVKGNPGNIRDQPRPAFSAIRQNPMTLGNVVIFDKVLTNQESPYQNHTGRFICAVPGFYYFNFQVISKWDLCLFIKSSSGGQPRDSLSFSNTNNKGLFQVLAGGTVLQLRRGDEVWIEKDPAKGRIYQGTEADSIFSGFLIFPSA
binds | SLC1A3 (protein, UniProt P56564 1-543) MTKSNGEEPRMGGRMERLQQGVRKRTLLAKKKVQSLTKEDVKSYLFRNAFVLLTVTAVIVGTILGFALRPYKMSYREVKYFSFPGELLMRMLQMLVLPLIISSLVTGMAALDSKASGKMGMRAVVYYMTTTIIAVVIGIIIVIIIHPGKGTKENMYREGKIVQVTAADAFLDLIRNMFPPNLVEACFKQFKTSYEKRSFKVPIQSNETLLGAVINNVSEAMETLTRIREEMVPVPGSVNGVNALGLVVFSMCFGFVIGNMKEQGQALREFFDSLNEAIMRLVAVIMWYAPLGILFLIAGKIVEMEDMGVIGGQLAMYTVTVIVGLLIHAVIVLPLLYFLVTRKNPWVFIGGLLQALITALGTSSSSATLPITFKCLEENNGVDKRITRFVLPVGATINMDGTALYEALAAIFIAQVNNFDLNFGQIITISITATAASIGAAGIPQAGLVTMVIVLTSVGLPTDDITLIIAVDWFLDRLRTTTNVLGDSLGAGIVEHLSRHELKNRDVEMGNSVIEENEMKKPYQLIAQDNEPEKPVADSETKM
binds | DLST (protein, UniProt Q9D2G2 69-454) NDVITVQTPAFAESVTEGDVRWEKAVGDAVAEDEVVCEIETDKTSVQVPSPANGIIEALLVPDGGKVEGGTPLFTLRKTGAAPAKAKPAETPAPAHKAEPAAPAAPPPPAAPVLTQMPPVPSPSQPPSSKPVSAIKPTAAPPLAEAGAAKGLRSEHREKMNRMRQRIAQRLKEAQNTCAMLTTFNEVDMSNIQEMRARHKDAFLKKHNLKLGFMSAFVKASAFALQEQPVVNAVIDDATKEVVYRDYIDISVAVATPRGLVVPVIRNVETMNYADIERTINELGEKARKNELAIEDMDGGTFTISNGGVFGSLFGTPIINPPQSAILGMHAIFDRPVAVGGKVEVRPMMYVALTYDHRLIDGREAVTFLRKIKAAVEDPRVLLLDL
binds | NEFM (protein, UniProt P08553 1-848) MSYTLDSLGNPSAYRRVTETRSSFSRVSGSPSSGFRSQSWSRGSPSTVSSSYKRSALAPRLAYSSAMLSSAESSLDFSQSSSLLNGGSGGDYKLSRSNEKEQLQGLNDRFAGYIEKVHYLEQQNKEIEAEIQALRQKQASHAQLGDAYDQEIRELRATLEMVNHEKAQVQLDSDHLEEDIHRLKERFEEEARLRDDTEAAIRALRKDIEESSMVKVELDKKVQSLQDEVAFLRSNHEEEVADLLAQIQASHITVERKDYLKTDISTALKEIRSQLECHSDQNMHQAEEWFKCRYAKLTEAAEQNKEAIRSAKEEIAEYRRQLQSKSIELESVRGTKESLERQLSDIEERHNHDLSSYQDTIQQLENELRGTKWEMARHLREYQDLLNVKMALDIEIAAYRKLLEGEETRFSTFSGSITGPLYTHRQPSVTISSKIQKTKVEAPKLKVQHKFVEEIIEETKVEDEKSEMEETLTAIAEELAASAKEEKEEAEEKEEEPEAEKSPVKSPEAKEEEEEGEKEEEEEGQEEEEEEDEGVKSDQAEEGGSEKEGSSEKDEGEQEEEEGETEAEGEGEEAEAKEEKKIEGKVEEVAVKEEIKVEKPEKAKSPMPKSPVEEVKPKPEAKAGKGEQKEEEKVEEEKKEVTKESPKEEKVEKKEEKPKDVADKKKAESPVKEKAVEEVITISKSVKVSLEKDTKEEKPQPQEKVKEKAEEEGGSEEEGSDRSPQESKKEDIAINGEVEGKEEEEQETQEKGSGREEEKGVVTNGLDVSPAEEKKGEDSSDDKVVVTKKVEKITSEGGDGATKYITKSVTVTQKVEEHEETFEEKLVSTKKVEKVTSHAIVKEVTQGD
binds | NDUFA10 (protein, UniProt Q99LC3 36-355) LRYGLLAAILGDKTTKKLHEYSRVITVDGNICSGKNKLAKEIAQQLGMKHYPEAGIQYSSTTTGDGRPLDIEFSGSCSLEKFYDDPKSNDGNSYRLQSWLYASRLLQYADALEHLLSTGQGVVLERSIYSDFVFLEAMYNQGYIRKQCVDHYNEIKRLTLPEYLPPHAVIYIDVPVPEVQSRIQKKGDPHEMKVTSAYLQDIENAYKKTFLPKMSEMCEVLVYDSWEAEDPTKVVEDIEYLKYNKGPWLKQDDWTFHYLRMLVQDKTEVLNYTTIPVYLPEITIGAHQGSRIYNSFRELPGRKYAPGYNAEVGDKWIWLK
binds | ACAT1 (protein, UniProt Q8QZT1 31-424) ASKPTLNEVVIVSAIRTPIGSFLGSLASQPATKLGTAAIQGAIEKAGIPKEEVKEVYMGNVIQGGEGQAPTRQATLGAGLPISTPCTTVNKVCASGMKAIMMASQSLMCGHQDVMVAGGMESMSNVPYVMSRGATPYGGVKLEDLIVKDGLTDVYNKIHMGNCAENTAKKMNISRQEQDTYALSSYTRSKEAWDAGKFASEITPITISVKGKPDVVVKEDEEYKRVDFSKVPKLKTVFQKENGTITAANASTLNDGAAALVLMTAEAAQRLNVKPLARIAAFADAAVDPIDFPLAPAYAVPKVLKYAGLKKEDIAMWEVNEAFSVVVLANIKMLEIDPQKVNIHGGAVSLGHPIGMSGARIVVHMAHALKPGEFGLASICNGGGGASALLIEKL
binds | RAP2B (protein, UniProt P61226 1-183) MREYKVVVLGSGGVGKSALTVQFVTGSFIEKYDPTIEDFYRKEIEVDSSPSVLEILDTAGTEQFASMRDLYIKNGQGFILVYSLVNQQSFQDIKPMRDQIIRVKRYERVPMILVGNKVDLEGEREVSYGEGKALAEEWSCPFMETSAKNKASVDELFAEIVRQMNYAAQPNGDEGCCSACVIL
binds | CAPRIN1 (protein, UniProt Q60865 1-707) MPSATSHSGSGSKSSGPPPPSGSSGSEAAAGAAAPASQHPATGTGAVQTEAMKQILGVIDKKLRNLEKKKGKLDDYQERMNKGERLNQDQLDAVSKYQEVTNNLEFAKELQRSFMALSQDIQKTIKKTARREQLMREEAEQKRLKTVLELQYVLDKLGDDDVRTDLKQGLSGVPILSEEELSLLDEFYKLVDPERDMSLRLNEQYEHASIHLWDLLEGKEKPVCGTTYKALKEIVERVFQSNYFDSTHNHQNGLCEEEEAASAPTVEDQVAEAEPEPAEEYTEQSEVESTEYVNRQFMAETQFSSGEKEQVDEWTVETVEVVNSLQQQPQAASPSVPEPHSLTPVAQSDPLVRRQRVQDLMAQMQGPYNFIQDSMLDFENQTLDPAIVSAQPMNPTQNMDMPQLVCPQVHSESRLAQSNQVPVQPEATQVPLVSSTSEGYTASQPLYQPSHATEQRPQKEPMDQIQATISLNTDQTTASSSLPAASQPQVFQAGTSKPLHSSGINVNAAPFQSMQTVFNMNAPVPPANEPETLKQQSQYQATYNQSFSSQPHQVEQTELQQDQLQTVVGTYHGSQDQPHQVPGNHQQPPQQNTGFPRSSQPYYNSRGVSRGGSRGARGLMNGYRGPANGFRGGYDGYRPSFSNTPNSGYSQSQFTAPRDYSGYQRDGYQQNFKRGSGQSGPRGAPRGRGGPPRPNRGMPQMNTQQVN
binds | ATP5O (protein, UniProt Q9DB20 24-213) FAKLVRPPVQVYGIEGRYATALYSAASKEKKLDQVEKELLRVGQLLKDPKVSLAVLNPYIKRTVKVKSLNDITKREKFSPLTANLMNLLAENGRLGNTQGIISAFSTIMSVHRGEVPCTVTTASPLDDAVLSELKTVLKSFLSPNQILKLEIKTDPSIMGGMIVRIGEKYVDMSAKSKIQKLSKAMREML
